For this assay, the target named is Flag-tagged PB1-F2 of H1N1 A/Puerto Rico/8/1934 (influenza A virus A/Puerto Rico/8/1934 (H1N1)) (UniProt P0C0U1). Description: co-IP; only the target purified.

Sequences of proteins named here, by UniProt entry; tags and fusion partners are left off.
UniProt P0C0U1: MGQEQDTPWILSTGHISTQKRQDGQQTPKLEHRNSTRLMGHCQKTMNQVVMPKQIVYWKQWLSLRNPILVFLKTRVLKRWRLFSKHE
UniProt O00165: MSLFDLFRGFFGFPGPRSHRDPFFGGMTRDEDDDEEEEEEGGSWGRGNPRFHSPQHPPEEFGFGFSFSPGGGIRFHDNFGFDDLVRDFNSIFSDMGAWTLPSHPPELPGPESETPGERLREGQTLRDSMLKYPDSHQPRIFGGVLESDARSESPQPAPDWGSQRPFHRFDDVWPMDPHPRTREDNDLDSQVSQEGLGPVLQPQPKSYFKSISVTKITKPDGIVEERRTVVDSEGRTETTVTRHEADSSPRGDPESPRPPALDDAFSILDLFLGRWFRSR

Results are given in words; binding and its absence hold for the method and conditions named. In cells and extracts the contact can be indirect. Some results given as binding are weak or reduced against the parent protein; the word gives no strength.

With “V5-HAX-1 (HCLS1-associated protein X-1) (from UniProt O00165 1-279)”, the binding entry is given as “binds”.

Values taken from paper PMC5952157.
